{"source": "the supplement of paper PMC10338343", "note": "± gives the standard deviation. The list shows a part of the results. The uncertainty is large for many entries.", "data": [{"tested_on": "EfPiwi piRISC loaded with L1MC piRNA (26 nt)", "assay": "pre-steady-state target cleavage rate (min^-1); guide: L1MC piRNA 5'p-UAACUAAAUACUAUGCAAGCUGUAGG; MIWI and MILI are mouse PIWI proteins and EfPiwi is from a freshwater sponge; tags in brackets are library labels; higher = faster piRNA-guided slicing of the target", "conditions": "auxiliary factor: 500 nM Ephydatia muelleri Gtsf1", "summary_of_the_method": "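For Cleave-'n-Seq, a transcribed, DNA-blocked target RNA library […] met 1 nM active affinity-purified piRISC with one synthetic guide at 33 °C for 0–8 or 0–960 min in HEPES–potassium acetate buffer, with or without 500 nM GTSF1 partner protein. Uncleaved targets were sequenced and normalised to depth and weakly complementary targets, with three trials pooled and k3 capped at 0.0001 min^-1. A burst-and-steady-state fit supplied the pre-steady-state cleavage rate.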", "values": [{"sequence": "UCCUGGAUGUGCUUGCAAUAGUAUUUAGUUA", "pre-steady-state target cleavage rate": "0.00338 ± 0.0036"}, {"sequence": "UCCUGGAUGUCGAAGCAUAGUCAUUUAGUUA", "pre-steady-state target cleavage rate": "0.00108 ± 0.0066"}, {"sequence": "UCCUGGAUGAGCUUGCACUAGUAUUUAGUUA", "pre-steady-state target cleavage rate": "0.000421 ± 0.011"}, {"sequence": "UCCUGGAUGACGCUUGCAUAGUAUUUAGUUA", "pre-steady-state target cleavage rate": "0.0537 ± 0.014"}, {"sequence": "UCCUGGAUGUGCUUGCAUAGUAUAAAGAAA", "pre-steady-state target cleavage rate": "0.00106 ± 0.006"}, {"sequence": "UCCUGGAUGAGCUUGCUUAGAAUUUAGUUA", "pre-steady-state target cleavage rate": "0.000461 ± 0.0083"}, {"sequence": "UCCUGGAUCAGCUUGCAUAGUUUUAGUUA", "pre-steady-state target cleavage rate": "0.000712 ± 0.0059"}, {"sequence": "UCCUGGAUGUGGUUGCUUAGUAUUUAGUUA", "pre-steady-state target cleavage rate": "0.00232 ± 0.0064"}, {"sequence": "UCCUGGAUGAGCUUGCAUAGUAAAAACAAA", "pre-steady-state target cleavage rate": "0.000451 ± 0.0086"}, {"sequence": "UCCUGGAUCAGCUUGCAUAGUAUUAUGUAA", "pre-steady-state target cleavage rate": "0.000969 ± 0.0041"}, {"sequence": "UCCUGGAUGUGCUUGCAUACUUUUUAGUUA", "pre-steady-state target cleavage rate": "0.00194 ± 0.0042"}, {"sequence": "UCCUGGAUGUCGUUGCAUAGUUUUAGUUA", "pre-steady-state target cleavage rate": "0.000247 ± 0.016"}, {"sequence": "UCCUGGAUGAGGUUGCAUAGUAUUUACAAA", "pre-steady-state target cleavage rate": "0.000651 ± 0.0052"}, {"sequence": "UCCUGGAUGUCGUUGCAUAGUUUUUAGUUA", "pre-steady-state target cleavage rate": "0.00143 ± 0.0037"}, {"sequence": "UCCUGGAUGUCGUUGCUAUAGUAUUUAGUUA", "pre-steady-state target cleavage rate": "0.000761 ± 0.0067"}, {"sequence": "UCCUGGAUGUCCUUGCAUAGUAUUUUCUAA", "pre-steady-state target cleavage rate": "0.00147 ± 0.0054"}, {"sequence": "UCCUGGAUGUCGUUGCGUAGUAUUUAGUUA", "pre-steady-state target cleavage rate": "0.00161 ± 0.0051"}, {"sequence": "UCCUGGAUGUCCUUGCAUAGAUUUAGUUA", "pre-steady-state target cleavage rate": "0.00193 ± 0.0052"}, {"sequence": "UCCUGGAUGUGCUUGCUAUGUAUUUAGUAA", "pre-steady-state target cleavage rate": "0.000479 ± 0.0081"}, {"sequence": "UCCUGGAACAGGUUGCAUAGUUUUUAGUUA", "pre-steady-state target cleavage rate": "0.00366 ± 0.0018"}, {"sequence": "UCCUGGAUGAGCUUGCAUACAAUUUAGUUA", "pre-steady-state target cleavage rate": "0.000752 ± 0.0044"}, {"sequence": "UCCUGGAUGUCGAACCAUAGUAUUUAGUUA", "pre-steady-state target cleavage rate": "0.00115 ± 0.0066"}, {"sequence": "UCCUGGAUGUCGAAGCCUAGUAUUUAGUUA", "pre-steady-state target cleavage rate": "0.000264 ± 0.0097"}, {"sequence": "UCCUGGAUCAGCUUGCAUACAUUUUAGUUA", "pre-steady-state target cleavage rate": "0.000366 ± 0.0073"}]}]}
